Laboratory results as given in PubChem BioAssay AID1439 (NMMLSC, 2008).
Hit rate of the full screen: of about 220,000 compounds, about 770 (0.35%) were called active. Inconclusive results, whose numbers are uncertain, are shown with a selection of clear calls. No stated cut-off is given here; in the data, active means binding response below about 49% or above about 150%; inconclusive means no clear call, values can overlap the other calls; inactive means in between.

Chains of the proteins cited; added tags and fusions are not shown.
UniProt P09471, whole entry, looked up: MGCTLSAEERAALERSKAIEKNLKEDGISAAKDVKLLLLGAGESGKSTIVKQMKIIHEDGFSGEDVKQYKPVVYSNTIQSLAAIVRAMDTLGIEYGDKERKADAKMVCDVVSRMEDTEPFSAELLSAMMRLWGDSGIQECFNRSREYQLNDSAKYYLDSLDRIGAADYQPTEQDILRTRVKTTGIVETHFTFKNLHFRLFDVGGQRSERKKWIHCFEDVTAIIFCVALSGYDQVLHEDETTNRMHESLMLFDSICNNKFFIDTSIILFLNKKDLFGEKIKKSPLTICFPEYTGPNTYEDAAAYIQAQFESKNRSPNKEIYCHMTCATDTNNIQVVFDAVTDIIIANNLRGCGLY

Target: Guanine nucleotide-binding protein G(o) subunit alpha (Homo sapiens) (UniProt P09471)
Test: RGS7-Galphao binding modulators, primary screen, biochemical, multiplexed bead flow cytometry (AID 1439);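 further: fluorescent Galphao held in activated GDP-AlF4 state binding bead-coupled RGS7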
Settings: at 10 µM, actives lie on both sides

SMILES | binding response (% of control)
CCOC(=O)N1CCN(C(=O)/C(=C\c2ccc(SC)cc2)NC(=O)c2ccccc2)CC1 | inconclusive: 68.4%
CCC1=C(OC(=O)N(CC)CC)N2C(=O)OC(=NCC3CC3)[C@]2(C)[C@H]2C1=CC[C@H]1C(=O)N(CC(=O)OC)C(=O)[C@H]12 | inconclusive: 128%
CNC(=O)Cn1c(C)cc(=O)c2cccc(C)c21 | inconclusive: 132%
Brc1cc(Br)cc(CN2CCSCC2)c1 | inconclusive: 148%
O=C(Nc1nncs1)c1cc2c(s1)CCC2 | inconclusive: 83.6%
COc1ccc(C)c(-n2c(=O)n(Cc3ccccc3)c(=O)c3[nH]cnc32)c1 | inconclusive: -71%
Oc1ccc(/C=N/Nc2nc(-c3ccccc3F)nc3ccccc23)c(O)c1 | inconclusive: 96.7%
COc1ccc(C(CC(=O)N2CCCC2)c2c(O)cc(OC)cc2OC)cc1 (stereo not given) | inconclusive: 105%
CN(C(=O)CO/N=C/c1ccc(Cl)cc1)c1ccccc1 | inconclusive: 80.2%
O=C(O)/C=C/C(=O)N1CCN(C(c2ccccc2)c2ccccc2)CC1 | inconclusive: 20.8%
CN(C)S(=O)(=O)c1cccc(NC(=S)N/N=C/c2ccc(O)c(O)c2O)c1 | inconclusive: 112%
Cc1ccc2c(C(=O)CN3CCN(C(=O)c4ccco4)CC3)c(C)[nH]c2c1 | inconclusive: 79.3%
CCOC(=O)/C=C1/N(C)c2ccccc2C1(C)C | inconclusive: 129%
O=C1NC(c2ccccc2)Nc2c1sc(=S)n2-c1ccccc1 (stereo not given) | inactive: 105%
O=C(O)c1cc(/C=C/C(=O)c2cc(F)ccc2O)c2c(c1)COCO2 | inconclusive: 96.7%
CC(C)OCCCNC(=O)CNC(=O)c1ccc(Cl)c(Cl)c1 | inconclusive: 97.1%
CC(=O)N1CCC(c2c[nH]c3ccccc23)CC1 | inconclusive: 116%
CCOC(=O)c1c(C)nc(C)c(C(=O)OCC)c1-c1cccnc1 | inconclusive: 146%
COC(=O)C1=C(C)OC(N)=C(C#N)C1c1cc2cccc(C)c2nc1Cl (stereo not given) | inactive: 98.3%
NC(=O)CC(NC(=O)c1ccc(Br)cc1)c1ccc(N2CCC(Br)CC2)c([N+](=O)[O-])c1 (stereo not given) | inconclusive: 85.8%
CCOC(=O)c1csc(-c2ccc3c(c2)CCO3)n1 | inconclusive: -99.2%
Cc1nc2ccc(S(=O)(=O)NCC(=O)NC(C)c3ccccc3)cc2s1 (stereo not given) | inactive: 117%
O=C(O)Cn1nnc2ccccc21 | inconclusive: 51.1%

SMILES | binding response (% of control)
O=C(O)c1cccc(S(=O)(=O)Nc2cc(Cl)ccc2Cl)c1 | inconclusive: 129%
Nc1ccc(Oc2c(Cl)cccc2Cl)nc1 | inconclusive: 103%
CC1CCN(C(=O)C2CCN(S(=O)(=O)c3cc(Cl)ccc3Cl)CC2)CC1 | inconclusive: 96.6%
CCc1cc2c(SCC(=O)Nc3cc(C)on3)ncnc2s1 | inactive: 106%
CC(=O)Nc1ccc(OCCCNC(=O)c2c(-c3ccccc3)noc2C)cc1 | inconclusive: 75.9%
Cn1c(CN2CCN(CCO)CC2)c(C#N)c2ccccc21 | inconclusive: 111%
COC(=O)c1ccc(C23CC4(C2)[C@H](CN(Cc2cccnc2)[C@@H]4c2ccccc2)C3c2ccc(Cl)nc2)cc1 (stereo not given in full) | inconclusive: 106%
CC1(/[N+]([O-])=C/c2ccc(Cl)cc2Cl)CCCCC1=O (stereo not given) | inconclusive: 77.6%
O=C1C(c2ccnc3ccccc23)=C(O)c2ccccc21 | inactive: 106%
CCOC(=O)CNC(=O)c1ccc(Br)s1 | inconclusive: 148%
Cc1ccc(Cl)cc1NC(=S)N/N=C/c1cccc2ccccc12 | inconclusive: 120%
O=C(Nc1ccc(C(F)(F)F)cc1)N1CCN(c2ccnc3cc(Cl)ccc23)CC1 | inconclusive: 91%
Cn1c(CSc2ncccn2)nnc1SCC(=O)N1CCCC1 | inactive: 103%
CC1(C)C(=O)OC(/C=C\c2cccc([N+](=O)[O-])c2)C(C)(C)C1=O (stereo not given) | inconclusive: 106%
CCC(C)NC(=O)CN1C(=O)NC2(CCc3ccccc3C2)C1=O (stereo not given) | inconclusive: 99.3%
CC(C)(C)Nc1nc(Cl)nc(NCCN2CCOCC2)n1 | inconclusive: 76.7%
COc1ccc(/C=N/OCC(=O)NCC(C)C)c(OC)c1 | inconclusive: 129%
CCOc1ccc2nc(N/C(N)=N/S(C)(=O)=O)nc(C)c2c1 | inconclusive: 71.8%
Cc1nc(NCCN2CCOCC2)c2nnn(Cc3ccccc3Cl)c2n1 | inactive: 99.9%
COc1ccc(-c2[nH]nc3c2C(c2ccccc2OC(=O)N2CCOCC2)C(C#N)=C(N)O3)cc1 (stereo not given) | inactive: 94.9%
COc1cc(O)c(C(CC(=O)N2CCCC2)c2ccc3c(c2)OCO3)c(OC)c1 (stereo not given) | inconclusive: 116%
Cc1cccn2c(=O)c(/C=C(\C#N)C(=O)NCc3ccco3)c(N3CCCCCC3)nc12 | inconclusive: 91.7%

3 of these compounds, reformatted.
SMILES,binding response (% of control)
COC(=O)C1=C(C)OC(N)=C(C#N)C1c1cc2cccc(C)c2nc1Cl (stereo not given),inactive: 98.3%
NC(=O)CC(NC(=O)c1ccc(Br)cc1)c1ccc(N2CCC(Br)CC2)c([N+](=O)[O-])c1 (stereo not given),inconclusive: 85.8%
CCOC(=O)c1csc(-c2ccc3c(c2)CCO3)n1,inconclusive: -99.2%
